Reference: patent US8455223B2, “Dehydrogenases, the derivatives thereof, and method for the production of optically active alkanols” (BASF SE, priority 2005, dated 2013)

Assays:
[1] = system: Comparative enzyme EP 1152054 SEQ ID NO: 1; experiment: Relative activity of dehydrogenase for various substrates, without cofactor regeneration (Example 1); type: biochemical; settings: value in brackets
Experimental: (§1) Relative activity of the dehydrogenases of the invention for various substrates (optical purity in % ee is indicated in brackets)
(§2) The reaction was carried out without cofactor regeneration.
(§3) 180 μl of 50 mM Kpi buffer, including 1 mM MgCl2
(§4) 200 μl of NADPH, 10 mM stock solution
(§5) 100 μl of substrate, 1 M stock solution 500 μl of hexane
(§6) The reaction mixture was incubated at 37° C. and 1000 rpm for approx. 20 hours. It was then centrifuged at 20° C., the clear supernatant was removed and analyzed by chiral gas chromatography.

[2] = system: Comparative enzyme EP 1152054 SEQ ID NO: 1; experiment: Relative activity of dehydrogenase for various substrates, with cofactor regeneration in the 2-phase system (Example 3); type: biochemical; settings: two-phase (MTBE: aqueous), value in brackets, configuration R/S printed in cell
[3] = system: ADH-3 enzyme SEQ ID NO: 2; experiment: Relative activity of dehydrogenase for various substrates, with cofactor regeneration, monophasic liquid system (Example 2); type: biochemical, Candida; settings: value in brackets, configuration R/S printed in cell
Experimental: (§7) Relative activity of the dehydrogenases of the invention for various substrates (optical purity in % ee is indicated in brackets) with cofactor regeneration.
(§8) The reaction was carried out in a manner similar to example 1. Cofactor regeneration was carried out by way of addition of glucose and glucose dehydrogenase in a monophasic liquid system.

[4] = system: ADH-4 enzyme SEQ ID NO: 4; experiment: as above; type: biochemical, Candida; settings: value in brackets, configuration R/S printed in cell
Experimental: as §7, §8

[5] = system: ADH-3 enzyme SEQ ID NO: 2; experiment: Relative activity of dehydrogenase for various substrates, with cofactor regeneration in the 2-phase system (Example 3); type: biochemical, Candida
[6] = system: ADH-4 enzyme SEQ ID NO: 4; experiment: as above; type: biochemical, Candida
[7] = system: ADH-3 enzyme SEQ ID NO: 2; experiment: Relative activity of dehydrogenase for various substrates, without cofactor regeneration (Example 1); type: biochemical, Candida; settings: value in brackets
Experimental: as §1, §2, §3, §4, §5, §6

[8] = system: ADH-4 enzyme SEQ ID NO: 4; experiment: as above; type: biochemical, Candida; settings: value in brackets
Experimental: as §1, §2, §3, §4, §5, §6

Molecule	optical purity [1] [% ee]	optical purity [2] [% ee]	optical purity [3] [% ee]	optical purity [4] [% ee]	optical purity ([5]; ADH-3 enzyme, […], value in brackets, configuration R/S printed in cell) [% ee]	optical purity ([6]; ADH-4 enzyme, […], value in brackets, configuration R/S printed in cell) [% ee]	optical purity [7] [% ee]	optical purity [8] [% ee]	optical purity [5]	optical purity [6]
4-chloro-methoxyacetophenone [CMAP]	98	> 99	–	–	–	–	–	–	–	–
CC(=O)c1ccccc1 [Acetophenone]	> 99	–	–	–	–	–	–	–	–	–
O=C(CCl)c1ccc(F)cc1 [FCA, 4′-fluoro-2-chloro-acetophenone]	–	–	> 99	58	> 99	46	–	–	–	–
O=C(CCl)c1cccc(Cl)c1 [m-DICAP, 2,3′-dichloro-acetophenone]	> 99	–	> 99	25	–	–	> 99	12	100 (>99% R) % ee	24.6 (6% S) % ee
O=C(CCl)c1ccc(Cl)cc1 [p-DICAP, 2,4′-dichloro-acetophenone]	–	–	> 99	44	–	–	–	–	30.4 (>99% R) % ee	27.6 (42% S) % ee
